PubChem BioAssay AID1259308, NCATS, 2017

Test: 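Genes whose loss raises luciferase production in HEK293 cells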 (primary screen)
Cells: human HEK293 embryonic kidney cells stably expressing firefly luciferase (HEK-CMV-Luc2-Hygro)
Reagents: single siRNA against human genes, 0.8 pmol siRNA per well
Duration: 72 h
Measured: 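Reporter luminescence and viable-cell signal on separate replicate plates, given as percent of non-targeting control and median/MAD z-scores, plus per-cell luciferase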
Direction: total luciferase, z-score and total luciferase, % of control: higher = more reporter protein produced; luciferase per cell, z-score: higher = more reporter output per viable cell; viable cells, % of control: higher = more viable cells
Rule for the call: 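An siRNA counts as active if its total luciferase robust z-score exceeds 3; genes with two or more such siRNAs out of three were retested with fresh siRNAs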
Meaning of the calls: active = raised luciferase; inactive = no rise
Here is one part, drawn at random, of about 59,000 deposited reagents. Of all reagents, about 1,510 (2.6%) were called active. 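Calls use total luciferase alone and ignore viability, so some active siRNAs may act by altering cell number.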 Unmarked entries are inactive. The numbers tell different reagents against one gene apart.

| gene symbol | siRNA no. | total luciferase, z-score | total luciferase, % of control | luciferase per cell, z-score | viable cells, % of control |
| --- | --- | --- | --- | --- | --- |
| SIT1 | 1 | 1.28 | 107 | 1.55 | 79.8 |
| SIT1 | 2 | -0.099 | 79.9 | -0.768 | 109 |
| SIT1 | 3 | -0.639 | 69.2 | -0.987 | 100 |
| SIGLEC5 | 1 | -0.321 | 75.5 | -0.531 | 97 |
| SIGLEC5 | 2 | 0.856 | 98.9 | 0.742 | 90.9 |
| SIGLEC5 | 3 | -0.381 | 74.3 | -1.16 | 113 |
| MSH6 | 1 | 0.296 | 87.8 | -0.095 | 101 |
| MSH6 | 2 | 0.169 | 85.2 | 0.382 | 86.1 |
| MSH6 | 3 | 1.01 | 102 | 1.98 | 67.7 |
| ARHGEF39 | 1 | -0.41 | 73.7 | -0.595 | 96.4 |
| ARHGEF39 | 2 | -0.00463 | 81.8 | 0.106 | 88.9 |
| ARHGEF39 | 3 | -1.62 | 49.7 | -1.8 | 89.1 |
| PMM1 | 1 | 0.49 | 91.6 | 0.815 | 82.6 |
| PMM1 | 2 | 0.261 | 87.1 | -0.119 | 100 |
| PMM1 | 3 | -1.98 | 42.4 | -0.501 | 54.1 |
| SNX16 | 1 | -0.429 | 73.4 | -0.0772 | 83.7 |
| SNX16 | 2 | -0.0085 | 81.7 | 0.0321 | 90.5 |
| SNX16 | 3 | -0.333 | 75.3 | -0.967 | 108 |
| LOC646999 | 1 | -0.321 | 75.5 | 0.331 | 77.3 |
| LOC646999 | 2 | 0.373 | 89.3 | 0.211 | 94.4 |
| LOC646999 | 3 | 0.664 | 95.1 | 0.474 | 93.8 |
| MLH1 | 1 | 1.37 | 109 | 2.28 | 67 |
| MLH1 | 2 | -0.658 | 68.8 | 0.318 | 70.7 |
| MLH1 | 3 | -0.501 | 71.9 | -0.523 | 92.2 |

Reformatted: 3 of the entries above.
{"gene symbol":"MSH6","siRNA no.":1,"total luciferase, z-score":0.296,"total luciferase, % of control":87.8,"luciferase per cell, z-score":-0.095,"viable cells, % of control":101}
{"gene symbol":"MSH6","siRNA no.":2,"total luciferase, z-score":0.169,"total luciferase, % of control":85.2,"luciferase per cell, z-score":0.382,"viable cells, % of control":86.1}
{"gene symbol":"MSH6","siRNA no.":3,"total luciferase, z-score":1.01,"total luciferase, % of control":102,"luciferase per cell, z-score":1.98,"viable cells, % of control":67.7}
